{"source": "patent US6909014B2", "about": "“Intermediates for the synthesis of ether compounds” (Esperion Therapeutics, Inc., priority 1999, dated 2005)", "key": {"[1]": {"tested_on": "chow fed obese female Zucker rats", "assay": "Experiments B, C, D, E: serum lipids, glucose, insulin, body and liver weight in obese female Zucker rats, 14 days", "assay_type": "in vivo, rat", "conditions": "Experiment C", "experimental": "In a number of different experiments, illustrative compounds of the invention and troglitazone were administered daily at various doses to 10-week old chow fed obese female Zucker rats for 14 days in the morning by oral gavage in 1.5% carboxymethylcellulose/0.2% Tween-20 (dosing vehicle). Animals were weighed daily. Animals were allowed free access to rodent chow and water throughout the study. Blood glucose was determined after a 6-hour fast in the afternoon without anesthesia from a tail vein. Serum was also prepared from a blood sample subsequently obtained from the orbital venous plexus (with O2/CO2 anesthesia) prior to and after one week treatment and used lipid and insulin determinations. At two weeks, blood glucose was again determined after a 6-hour fast without anesthesia from a tail vein. Soon thereafter, animals were sacrificed by CO2 inhalation in the evening and cardiac blood serum was collected and assessed for various lipids and insulin. Body weight was determined daily prior to dosing and at the time of euthanasia."}, "female obese Zucker rats": {"tested_on": "female obese Zucker rats", "assay": "Experiment A: serum lipids, glucose, non-esterified fatty acids and weight gain in obese female Zucker rats, seven days", "assay_type": "in vivo, rat", "conditions": "troglitazone 120 mg/kg, one week", "experimental": "Dosing vehicle, Compound A (86 mg/kg of body weight) or troglitazone (120 mg/kg of body weight) was administered to eight week old female obese Zucker rats daily for seven days in the morning by oral gavage in 1.5% carboxymethylcellulose/0.2% Tween-20. Troglitazone was obtained commercially. Finely crushed tablets were suspended in vehicle for dosing. Orbital blood samples were obtained following a six-hour fast prior to the initial dose and also following the seventh dose.\nBlood serum was assayed for total cholesterol and triglycerides (FIG. 5), lipoprotein cholesterol profiles (FIG. 6), VLDL plus LDL cholesterol combined (also referred to as apo B containing lipoprotein cholesterol or non-HDL cholesterol), HDL cholesterol, and the ratio of HDL cholesterol to that of VLDL plus LDL cholesterol (FIG. 7), serum glucose, and non-esterified fatty acids (FIG. 8), and percent weight gain (FIG. 9). […] In particular, Compound A caused a marked elevation in HDL cholesterol after one week of treatment. Using the serum total cholesterol values (FIG. 5A) and the lipoprotein cholesterol distribution (FIG. 6), the amount of cholesterol associated with non-HDL (i.e., VLDL plus LDL) and HDL were determined (FIG. 7). […] In contrast, troglitazone reduced non-HDL and HDL cholesterol by 67% and 4%, respectively."}}, "note": "For at least one compound, name, drawing or mass did not settle the structure.", "data": [{"smiles": "Cc1c(C)c2c(c(C)c1O)CCC(C)(COc1ccc(CC3SC(=O)NC3=O)cc1)O2", "note": "(stereo not shown) [Troglitazone, troglitazone, reference compound]", "values": [{"measurement": "blood glucose (in words)", "setting": "[1]; Compound A 100 mg/kg, troglitazone 40 mg/kg, fasted rats (FIG. 12)", "value": "tendency to lower blood glucose"}, {"measurement": "reduction of serum triglycerides (in words)", "setting": "[1]; Compound A 1-100 mg/kg, troglitazone 12, 40, 120 mg/kg (FIG. 10)", "value": "observed only at doses of 40 and 120 mg/kg"}, {"measurement": "serum total cholesterol (in words)", "setting": "[1]; troglitazone 12, 40, 120 mg/kg (FIG. 11)", "value": "only modestly elevated at the highest dose (120 mg/kg) and only after two weeks of treatment"}, {"measurement": "weekly percent weight gain (in words)", "setting": "[1]; troglitazone 12, 40 and 120 mg/kg (FIG. 15)", "value": "increased weight gain after one week at 120 mg/kg and increased weight gain after two weeks at all treatment doses"}, {"measurement": "glucose to insulin ratio (in words)", "setting": "[1]; troglitazone at all doses (FIG. 14)", "value": "sustained the glucose to insulin ratio after one week treatment and increased this ratio after two weeks of treatment"}, {"measurement": "serum insulin (in words)", "setting": "[1]; troglitazone, all doses tested, two weeks (FIG. 13)", "value": "reduced following two weeks of treatment at all doses tested"}, {"measurement": "total serum cholesterol (in words)", "setting": "female obese Zucker rats", "value": "reduction of this variable"}]}]}
